Results are given in words; binding and its absence hold for the method and conditions named. Binding seen in cells or lysates may run through a third protein. Some results given as binding are weak or reduced against the parent protein; the word gives no strength. One block for each binder: values may come before it.
Tests used:
[1] = target: T1, decidual protein induced by progesterone (DEPP) (UniProt Q9NTK1); assay: co-IP; 786-O cell lysates; 5 ug PLCL1 antibody, anti-myc antibody or IgG at 4°C overnight, protein A/G magnetic beads 1 hour, low-pH elution, immunoblot with anti-PLCL1 and anti-MYC; reciprocal
T1 sequence: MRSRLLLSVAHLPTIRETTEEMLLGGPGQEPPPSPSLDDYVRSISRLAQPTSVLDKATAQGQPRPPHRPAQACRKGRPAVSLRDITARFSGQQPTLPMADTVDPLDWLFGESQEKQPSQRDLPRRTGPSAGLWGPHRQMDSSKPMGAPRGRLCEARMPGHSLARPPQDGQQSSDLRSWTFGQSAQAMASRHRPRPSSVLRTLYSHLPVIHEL

[2] = target: T2, phospholipase C-like protein 1 (PLCL1) (human (in 786-O cells; endogenous or from the expression lentivirus not told)) (UniProt Q15111); assay: as above
T2 sequence: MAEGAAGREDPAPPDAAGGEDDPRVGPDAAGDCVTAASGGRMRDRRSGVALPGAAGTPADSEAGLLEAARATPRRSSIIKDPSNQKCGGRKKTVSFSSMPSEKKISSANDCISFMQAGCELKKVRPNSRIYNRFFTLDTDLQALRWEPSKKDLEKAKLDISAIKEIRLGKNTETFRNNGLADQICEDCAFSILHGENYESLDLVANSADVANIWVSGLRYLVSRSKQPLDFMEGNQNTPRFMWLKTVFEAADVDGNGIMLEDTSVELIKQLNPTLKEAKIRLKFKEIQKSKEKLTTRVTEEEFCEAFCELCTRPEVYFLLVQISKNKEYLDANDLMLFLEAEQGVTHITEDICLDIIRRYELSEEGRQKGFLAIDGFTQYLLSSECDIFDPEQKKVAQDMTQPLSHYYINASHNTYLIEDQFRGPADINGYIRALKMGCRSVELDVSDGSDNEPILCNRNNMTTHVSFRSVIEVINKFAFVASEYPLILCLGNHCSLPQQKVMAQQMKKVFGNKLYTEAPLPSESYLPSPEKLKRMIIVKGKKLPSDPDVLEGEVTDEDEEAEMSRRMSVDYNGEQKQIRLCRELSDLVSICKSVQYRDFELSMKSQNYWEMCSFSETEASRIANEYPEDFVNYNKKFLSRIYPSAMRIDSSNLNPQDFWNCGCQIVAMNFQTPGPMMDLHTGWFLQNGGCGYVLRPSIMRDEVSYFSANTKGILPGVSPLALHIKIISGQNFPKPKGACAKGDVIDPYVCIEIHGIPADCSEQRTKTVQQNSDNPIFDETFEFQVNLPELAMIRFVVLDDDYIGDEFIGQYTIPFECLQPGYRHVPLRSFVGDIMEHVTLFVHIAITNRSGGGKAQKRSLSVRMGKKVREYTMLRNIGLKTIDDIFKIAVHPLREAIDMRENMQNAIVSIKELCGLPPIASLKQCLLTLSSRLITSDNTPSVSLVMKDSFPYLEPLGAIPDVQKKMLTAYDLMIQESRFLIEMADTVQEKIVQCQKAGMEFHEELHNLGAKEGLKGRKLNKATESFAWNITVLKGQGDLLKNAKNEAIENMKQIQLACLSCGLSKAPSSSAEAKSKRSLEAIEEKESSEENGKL

binding [1]: binds
B1: phospholipase C-like protein 1 (PLCL1) (protein, UniProt Q15111 1-1095)
chain: T2 sequence

binding [2]: binds
B2: decidual protein induced by progesterone (DEPP) (protein, UniProt Q9NTK1 1-212)
chain: T1 sequence

Reference: publication PMC10599749
